Data published in patent publication US11279735B2 (priority 2017, dated 2022).

Assay: general procedure: Fmoc solid-phase peptide synthesis; 2-chlorotrityl chloride resin (loading 0.956 mmol/g) or 2-chlorotrityl resin preloaded with glycine (0.536 mmol/g); HOBt couplings; HBTU/DIPEA; triphosgene/2,4,6-trimethylpyridine for the beta-hyd
Settings: TFA salt; for step yield: late stage modification step; for cyclisation yield: cyclisation step

Row | Substance | step yield | other results
1 | tert-Butyl N-[[(3R,6S,9S,12S,15S,18R,19R)-6-[[2-[tert-butyl(dimethyl)silyl]oxyethylamino]methyl]-12-cycloheptyl-19-hexyl-15-isobutyl-3,16,18-trimethyl-5,8,11,14,17-pentaoxo-1-oxa-4,7,10,13,16-pentazacyclononadec-9-yl]methyl]carbamate | 41.6% yield | 
2 | (6S,9S,12S,15S,18R,19R)-18-([1,1′-Biphenyl]-4-ylmethyl)-9-(aminomethyl)-12-cyclohexyl-19-hexyl-6-((S)-1-hydroxyethyl)-15-isobutyl-16-methyl-1-oxa-4,7,10,13,16-pentaazacyclononadecane-2,5,8,11,14,17-hexaone | 38% yield | 
3 | (3R,6S,9S,12S,15S,18R,19R)-6-((4-Aminobutoxy)methyl)-9-(aminomethyl)-12-cyclohexyl-19-hexyl-15-isobutyl-3,16,18-trimethyl-1-oxa-4,7,10,13,16-pentaazacyclononadecane-5,8,11,14,17-pentaone |  | cyclisation yield: 95% yield
4 | (3R,6S,9S,12S,15S,18R,19R)-9-(Aminomethyl)-18,19-dibutyl-12-cyclohexyl-6-((S)-1-hydroxyethyl)-3,16-dimethyl-15-propyl-1-oxa-4,7,10,13,16-pentaazacyclononadecane-5,8,11,14,17-pentaone | 5% yield | 
5 | (3R,6S,9S,12S,15S,18R,19R)-9-(Aminomethyl)-12-cycloheptyl-19-hexyl-6-(((2-hydroxyethyl)amino)methyl)-15-isobutyl-3,16,18-trimethyl-1-oxa-4,7,10,13,16-pentaazacyclononadecane-5,8,11,14,17-pentaone | 25.2% yield | 
6 | (3R,6S,9S,12S,15S,18R,19R)-6-[(2-Aminoethylamino)methyl]-9-(aminomethyl)-12-cycloheptyl-19-hexyl-15-isobutyl-3,16,18-trimethyl-1-oxa-4,7,10,13,16-pentazacyclononadecane-5,8,11,14,17-pentone | 9.6% yield | 
7 | (3R,6S,9S,12S,15S,18R,19R)-6,9-Bis(aminomethyl)-12-cycloheptyl-19-hexyl-15-isobutyl-3,16,18-trimethyl-1-oxa-4,7,10,13,16-pentazacyclononadecane-5,8,11,14,17-pentone | 20.9% yield | 
8 | (6S,9S,12S,15S,18R,19R)-12-((R)-sec-Butyl)-18-ethyl-9-heptyl-6-((S)-1-hydroxyethyl)-9-(hydroxymethyl)-15-isobutyl-16-methyl-1-oxa-4,7,10,13,16-pentaazacyclononadecane-2,5,8,11,14,17-hexaone | 5.2% yield | 
9 | (3R,6S,9S,12S,15S,18R,19R)-9-(Aminomethyl)-12-cyclohexyl-6-(((S)-2,3-dihydroxypropoxy)methyl)-19-hexyl-15-isobutyl-3,16,18-trimethyl-1-oxa-4,7,10,13,16-pentaazacyclononadecane-5,8,11,14,17-pentaone |  | step yield (run 1): 83% yield; step yield (run 2): 6% yield
10 | (3R,6S,9S,12S,15S,18R,19R)-6-((3-Amino-2-hydroxypropoxy)methyl)-9-(aminomethyl)-12-cyclohexyl-19-hexyl-15-isobutyl-3,16,18-trimethyl-1-oxa-4,7,10,13,16-pentaazacyclononadecane-5,8,11,14,17-pentaone | 10.3% yield | 
11 | (6S,9S,12S,15S,18R,19R)-9-(Aminomethyl)-6-((3-aminopropoxy)methyl)-12-cyclohexyl-19-hexyl-15-isobutyl-16,18-dimethyl-1-oxa-4,7,10,13,16-pentaazacyclononadecane-2,5,8,11,14,17-hexaone | 20% yield | isolated yield (whole synthesis): 45% yield
12 | (3R,6S,9S,12S,15S,18R,19R)-9-(Aminomethyl)-12-cyclohexyl-6-((3-(dimethylamino)propoxy)methyl)-19-hexyl-15-isobutyl-3,16,18-trimethyl-1-oxa-4,7,10,13,16-pentaazacyclononadecane-5,8,11,14,17-pentaone | 30% yield | 
13 | Benzyl (((3R,6S,9S,12S,15S,17aR,23aR,Z)-6-((S)-1-(benzyloxy)ethyl)-12-cyclohexyl-3,16-dimethyl-5,8,11,14,17-pentaoxo-15-propyl-2,3,4,5,6,7,8,9,10,11,12,13,14,15,16,17,17a,18,19,22,23,23a-docosahydrocycloocta[r][1l]oxa[4,7,10,13,16]pentaazacyclononadecin-9-yl)methyl)carbamate |  | cyclisation yield: 81% yield
14 | (3S,6S,9S,12S,15S,18R,19R)-9-(aminomethyl)-12-((R)-sec-butyl)-19-decyl-6-((S)-1-hydroxyethyl)-15-isobutyl-3,16,18-trimethyl-1-oxa-4,7,10,13,16-pentaazacyclononadecane-2,5,8,11,14,17-hexaone | 34% yield | 
15 | (6S,9S,12S,15S,18R,19R)-9-(Aminomethyl)-12-cycloheptyl-19-hexyl-6-((S)-1-hydroxyethyl)-15-isobutyl-16,18-dimethyl-1-oxa-4,7,10,13,16-pentaazacyclononadecane-2,5,8,11,14,17-hexaone | 10% yield | 
16 | (3R,6S,9S,12S,15S,18R,19R)-9-(Aminomethyl)-12-cyclohexyl-19-hexyl-6-((S)-1-hydroxyethyl)-15-isobutyl-3,16,18-trimethyl-1-oxa-4,7,10,13,16-pentaazacyclononadecane-5,8,11,14,17-pentaone | 10% yield | 
17 | N-(((6S,9S,12S,15S,18R,19R)-9-(Aminomethyl)-12-cyclohexyl-19-hexyl-15-isobutyl-16,18-dimethyl-2,5,8,11,14,17-hexaoxo-1-oxa-4,7,10,13,16-pentaazacyclononadecan-6-yl)methyl)azetidine-3-carboxamide | 16% yield | 
18 | (6S,9S,12S,15S,18R,19R)-12-((R)-sec-butyl)-19-hexyl-6-((S)-1-hydroxyethyl)-9-(hydroxymethyl)-15-isobutyl-16-methyl-18-(3-(p-tolyl)propyl)-1-oxa-4,7,10,13,16-pentaazacyclononadecane-2,5,8,11,14,17-hexaone | (26%) | 
19 | (6S,9S,12S,15S,18R,19R)-9-(Aminomethyl)-19-decyl-12-(4,4-difluorocyclohexyl)-6-((S)-1-hydroxyethyl)-15-isobutyl-16,18-dimethyl-1-oxa-4,7,10,13,16-pentaazacyclononadecane-2,5,8,11,14,17-hexaone | (20%) | cyclisation yield: 78% crude yield; crude yield (whole synthesis): 95%
20 | (6S,9S,12S,15S,18R,19R)-9-(aminomethyl)-12-((R)-sec-butyl)-19-decyl-6-((S)-1-hydroxyethyl)-15-isobutyl-16,18-dimethyl-1-oxa-4,7,10,13,16-pentaazacyclononadecane-2,5,8,11,14,17-hexaone | 13% yield | cyclisation yield: 35% yield; crude yield (whole synthesis, over two steps): 37% yield over two steps
21 | (6S,9S,12S,15S,18R,19R)-9-(Aminomethyl)-12-cyclohexyl-6-((S)-1-hydroxyethyl)-15-isobutyl-16,18-dimethyl-19-(7-methyloctyl)-1-oxa-4,7,10,13,16-pentaazacyclononadecane-2,5,8,11,14,17-hexaone |  | cyclisation yield: 40% yield
